Laboratory results: patent US20260382583A1, “LPA1 ANTAGONISTS FOR TREATING INTERSTITIAL LUNG DISEASE” (published 2026)
Entries after “also recorded” stand apart in the source; their conditions may differ. Not every entry of the source has a single result; some have several. Only these are listed. There may be further records. Results that share an entry differ, and nothing given here explains why; some may be repeats, others may stem from another dose, organism or construct than stated.

What was measured:
participants with PPF [1] = experiment: Phase 2 PPF cohort: safety and blood pressure monitoring
Experimental: (§1) A total of 123 participants with PPF were randomized. Participants (age ≥21 years) were randomized (1:1:1) to receive 30 mg or 60 mg Compound A or PBO twice daily for 26 weeks. […] Immunosuppressive medications (mycophenolate mofetil, mycophenolic acid, azathioprine and/or tacrolimus) were permitted only if dosing is stable for ≥6 months prior to screening. If receiving antifibrotic agents pirfenidone or nintedanib, patients had to receive a stable dosage for ≥3 months prior to screening and during the screening period; if not receiving pirfenidone or nintedanib, patients had to be naive to both drugs or not have received either 4 weeks prior to Day 1. A total of 47 (38.2%) subjects were receiving antifibrotic treatment (with or without immunosuppression therapy). Of those subjects, 34 were being treated with nintedanib and 13 with pirfenidone. Participants were stratified by usual interstitial pneumonia (UIP) pattern (presence versus absence) and background therapy (antifibrotics+/−ILD-targeted immunosuppression versus ILD-targeted immunosuppression alone versus none).UIP pattern was present in 52% of subjects and unclassifiable ILD was the most common disease categorization.
Patient is experiencing any of the following, confirmed by retest within 15 minutes: • Seated systolic blood pressure <85 mmHg • Seated diastolic blood pressure <55 mmHg • Orthostatic hypotension
Patient is experiencing symptoms that, in the investigator's opinion, could be associated with a reduction in blood pressure and is also experiencing at least one of the following, confirmed by retest within 15 minutes: • Seated systolic blood pressure <100 mmHg or seated diastolic blood pressure <60 mmHg • Decrease of seated systolic blood pressure of ≥20 mmHg from the previous visit or decrease of seated diastolic blood pressure of ≥10 mmHg from the previous visit • Orthostatic hypotension • Orthostatic tachycardia

participants with PPF [2] = experiment: Phase 2 PPF cohort: efficacy (FVC, ppFVC), 26 weeks; settings: 60 mg BID, overall, primary estimand
Experimental: as §1, with “Participants were stratified by usual interstitial pneumonia (UIP) pattern (presence versus absence) and background therapy (antifibrotics+/−ILD-targeted immunosuppression versus ILD-targeted immunosuppression alone versus none).UIP pattern was present in 52% of subjects and unclassifiable ILD was the most common disease categorization.” left out
The main efficacy endpoint, rate of FVC decline (in % of predicted) from baseline to wk-26 in the PPF cohort, was estimated using a linear mixed-effects model utilizing all FVC timepoints. It was analyzed under a primary estimand (utilizing all data, treatment policy strategy), and under supplementary estimand (utilizing all data up to the point of dose reduction, while-on-treatment strategy). […]

CCCN(C)C(=O)OCc1c(-c2ccc(O[C@H]3CCC[C@H](C(=O)O)C3)c(C)n2)nnn1C
Asymptomatic blood pressure reduction (participants with PPF [1]; 30 mg BID): 9 no and (22.5) % | COVID-19 (participants with PPF [1]; 30 mg BID): 6 no and (15.0) % | Cough (participants with PPF [1]; 30 mg BID): 3 no and (7.5) % | Diarrhea (participants with PPF [1]; 30 mg BID): 6 no and (15.0) % | Dose reductions (participants with PPF [1]; 30 mg BID): 6 no and (15.0) % | Dyspnea (participants with PPF [1]; 30 mg BID): 2 no and (5.0) % | Hypotension (participants with PPF [1]; 30 mg BID): 4 no and (10.0) % | Nausea (participants with PPF [1]; 30 mg BID): 4 no and (10.0) % | Orthostatic hypotension (asymptomatic criteria) (participants with PPF [1]; 30 mg BID): 6 no and (15.0) % | Orthostatic hypotension (symptomatic criteria) (participants with PPF [1]; 30 mg BID): 1 no and (2.5) % | Patients with ≥1 TEAE (participants with PPF [1]; 30 mg BID): 33 no and (82.5) % | Patients with ≥1 TEAE related to study drug (participants with PPF [1]; 30 mg BID): 7 no and (17.5) % | Patients with ≥1 TESAE (participants with PPF [1]; 30 mg BID): 4 no and (10.0) % | Rash (participants with PPF [1]; 30 mg BID): 3 no and (7.5) % | Symptomatic blood pressure reduction (participants with PPF [1]; 30 mg BID): 2 no and (5.0) % | Vomiting (participants with PPF [1]; 30 mg BID): 3 no and (7.5) % | Orthostatic hypotension (participants with PPF [1]; 30 mg BID (Table 26)): 2 no and (5.0) % | Asymptomatic blood pressure reduction (participants with PPF [1]; 60 mg BID): 13 no and (31.0) % | COVID-19 (participants with PPF [1]; 60 mg BID): 6 no and (14.3) % | Cough (participants with PPF [1]; 60 mg BID): 5 no and (11.9) % | Diarrhea (participants with PPF [1]; 60 mg BID): 3 no and (7.1) % | Dizziness (participants with PPF [1]; 60 mg BID): 4 no and (9.5) % | Dose reductions (participants with PPF [1]; 60 mg BID): 5 no and (11.9) % | Hypertension (participants with PPF [1]; 60 mg BID): 1 no and (2.4) % | Hypotension (participants with PPF [1]; 60 mg BID): 3 no and (7.1) % | Nausea (participants with PPF [1]; 60 mg BID): 1 no and (2.4) % | Orthostatic hypotension (asymptomatic criteria) (participants with PPF [1]; 60 mg BID): 11 no and (26.2) % | Orthostatic hypotension (symptomatic criteria) (participants with PPF [1]; 60 mg BID): 4 no and (9.5) % | Patients with ≥1 TEAE (participants with PPF [1]; 60 mg BID): 28 no and (66.7) % | Patients with ≥1 TEAE related to study drug (participants with PPF [1]; 60 mg BID): 11 no and (26.2) % | Patients with ≥1 TESAE (participants with PPF [1]; 60 mg BID): 5 no and (11.9) % | Symptomatic blood pressure reduction (participants with PPF [1]; 60 mg BID): 6 no and (14.3) % | Orthostatic hypotension (participants with PPF [1]; 60 mg BID (Table 26)): 4 no and (9.5) % | Relative reduction in rate of decline in FVC (% predicted) (participants with PPF [2]): 74%; also recorded: Policy Strategy (Relative Reduction = 74%)
